Values quoted from earlier work in PMC6974622, “DeepMalaria: Artificial Intelligence Driven Discovery of Potent Antiplasmodials” (Frontiers in Pharmacology, 2020).

Test system: 3D7
Design: unit not given here
Details: cited from earlier work

## COc1ccc(CC(C)NCC(O)c2ccc(O)c(NC=O)c2)cc1 (stereo not shown) [Formoterol]
  3D7: 61.6
